Assay results reported in patent publication US9314029B2, “Control and repellency of mosquitoes” (BEDOUKIAN RESEARCH, INC., priority 2012, dated 2016).

Experiment: Odor intensity, modified static-scale ASTM E544-10 method
Details: for Test material Intensity score: Compound at 15%, scale 0 (No odor) to 6 (Extremely strong), reference 1-butanol

SMILES | Test material Intensity score | relative odor intensity (in words) (in comparison with methyl dihydrojasmonate)
CCCCCC1C(=O)CCC1CC(=O)OC (stereo not shown) [Methyl Dihydrojasmonate, reference compound] | 5 | –
CCCCCC1C(=O)CCC1CC(=O)OCCC (stereo not shown) [Propyl Dihydrojasmonate] | 1 | almost no odor
CCN(CC)C(=O)c1cccc(C)c1 [DEET ®, N,N-Diethyl-m-toluamide, reference compound] | 1.5 | –
